Here are results for 1 compound from patent US20190008848A1, “IDENTIFICATION OF ADDITIONAL ANTI-PERSISTER ACTIVITY AGAINST BORRELIA BURGDORFERI FROM AN FDA DRUG LIBRARY” (THE JOHNS HOPKINS UNIVERSITY, priority 2015, published 2019).

In the experiment the test system is stationary phase B. burgdorferi. The experiment is described as follows: SYBR Green I/PI viability assay (drug library screen, plate reader). The following applies: screen at 50 μM, 7 days. How it is done:
Borrelia burgdorferi strain B31 (ATCC35210) was received from the […] (Manassas, Va., USA) and was grown in BSK-H medium (HiMedia Laboratories, Mumbai, India) and 6% rabbit serum (Sigma Aldrich, St. Louis, Mo., USA). The culture was filtered and sterilized using a […] and incubated in capped sterile 50 mL conical tubes (BD Biosciences, CA, USA) at 33° C. for 7 days without antibiotics until the culture reached stationary phase.
The cultures were examined using a Nikon Eclipse E800 microscope with differential interference contrast and epifluorescent illumination. The pictures were captured using a SPOT slider color camera. A SYBR Green I/PI assay was used to assess the viability of the bacterial sample using the ratio of live to dead B. burgdorferi (measured with green and red fluorescence, respectively) as measured by a plate reader.
Briefly, prediluted drug stock (10 μL) was added to 7 day old stationary phase B. burgdorferi culture (90 μL) to achieve a 50 μM final drug concentration per well. The plates were then incubated at 33° C. for 7 days at which point the SYBR/PI rapid viability assay was performed in a fluorescence plate reader to obtain the green-red fluorescence ratio.

Molecules are shown by their SMILES.

In the case of `Clc1ccc(CO/N=C(\Cn2ccnc2)c2ccc(Cl)cc2Cl)c(Cl)c1` [Oxiconazole nitrate], the “activity against stationary phase B. burgdorferi (in words)” value is listed as “reasonable activity”.
